Source: paper PMC5884641
Results are given in words; binding and its absence hold for the method and conditions named. Binding seen in cells or lysates may run through a third protein. Some results given as binding are weak or reduced against the parent protein; the word gives no strength.

Amino acid sequences for entries named in this document (tags omitted). Residues count along the entry.
UniProt P11021, residues 19-654: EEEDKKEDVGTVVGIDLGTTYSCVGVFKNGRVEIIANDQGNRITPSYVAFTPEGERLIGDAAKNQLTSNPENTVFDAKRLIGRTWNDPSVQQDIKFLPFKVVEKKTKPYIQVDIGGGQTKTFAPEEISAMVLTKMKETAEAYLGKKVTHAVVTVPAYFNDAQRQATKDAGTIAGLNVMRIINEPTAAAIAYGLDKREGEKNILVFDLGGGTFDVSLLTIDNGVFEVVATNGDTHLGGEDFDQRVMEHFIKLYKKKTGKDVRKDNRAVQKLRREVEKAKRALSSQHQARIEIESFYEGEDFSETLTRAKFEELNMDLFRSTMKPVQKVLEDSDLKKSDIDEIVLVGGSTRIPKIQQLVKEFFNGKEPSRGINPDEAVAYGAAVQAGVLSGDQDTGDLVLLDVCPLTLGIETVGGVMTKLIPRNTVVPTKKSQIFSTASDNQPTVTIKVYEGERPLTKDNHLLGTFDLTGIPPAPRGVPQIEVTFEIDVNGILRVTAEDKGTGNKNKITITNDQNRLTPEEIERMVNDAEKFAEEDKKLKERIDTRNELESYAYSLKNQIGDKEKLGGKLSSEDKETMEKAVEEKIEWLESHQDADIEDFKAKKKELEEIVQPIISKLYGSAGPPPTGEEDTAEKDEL

Biological target: His-tagged GRP78 (glucose-regulated protein 78) (UniProt P11021)
Test: co-IP; RAW264.7 cells treated with 40 nM purified His-GRP78 for different times, lysed (Western and IP buffer); 800 ug lysate, anti-His antibody or control IgG overnight, Protein A/G PLUS-Agarose 2 h at 4 C; Western blot of the endogenous partner; only the target purified

B1: Caveolin-1 (protein, UniProt P49817 1-178)
chain: MSGGKYVDSEGHLYTVPIREQGNIYKPNNKAMADEVTEKQVYDAHTKEIDLVNRDPKHLNDDVVKIDFEDVIAEPEGTHSFDGIWKASFTTFTVTKYWFYRLLSTIFGIPMALIWGIYFAILSFLHIWAVVPCIKSFLIEIQCISRVYSIYVHTFCDPLFEAIGKIFSNIRISTQKEI
In the case of B1, the binding is reported as “binds”.

B2: LAMP1 (protein, UniProt P11438 25-406)
chain: LFEVKNNGTTCIMASFSASFLTTYETANGSQIVNISLPASAEVLKNGSSCGKENVSDPSLTITFGRGYLLTLNFTKNTTRYSVQHMYFTYNLSDTEHFPNAISKEIYTMDSTTDIKADINKAYRCVSDIRVYMKNVTVVLRDATIQAYLSSGNFSKEETHCTQDGPSPTTGPPSPSPPLVPTNPTVSKYNVTGNNGTCLLASMALQLNITYLKKDNKTVTRAFNISPNDTSSGSCGINLVTLKVENKNRALELQFGMNASSSLFFLQGVRLNMTLPDALVPTFSISNHSLKALQATVGNSYKCNTEEHIFVSKMLSLNVFSVQVQAFKVDSDRFGSVEECVQDGNNMLIPIAVGGALAGLVLIVLIAYLIGRKRSHAGYQTI
B2 was tested, and the binding was “no binding”.
